Laboratory results reported in PubChem BioAssay AID2685 (National Center for Advancing Translational Sciences (NCATS), 2010).
Hit rate of the full screen: of about 320,000 compounds, about 2,100 (0.66%) were called active. This list was built around the results that the source calls inconclusive (neither active nor inactive); the mix of calls is not that of the screen. Calls come from the whole dose curve; as a rule, active = well fitted inhibition curve with a large enough effect in the signal ratio, with a control signal flat (not every such curve was filed as active); inconclusive = small, poorly fitted or top-dose-only effect, or effect the other way, or a change in a side signal; inactive = flat fitted curve, though single readings scatter; the % refers to the signal ratio. Potencies of inconclusive entries are doubtful fits and often do not repeat.

experiment: qHTS Assay for Lipid Storage Modulators in Drosophila S3 Cells; settings: BODIPY lipid droplet fluorescence, 18-24 h, cells fed with added oleic acid; lipid storage change, negative = inhibition: at 46.1 µM (top of the series) unless noted
Method in brief: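 Drosophila S3 cells got compounds at several concentrations plus oleic acid (400 uM solution). Laser-scanning cytometry with 488 nm excitation read lipid droplets at 500-530 nm and cells at 575-640 nm. Percent activity was relative to 20 uM Triacsin C.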
% is set by controls: 0 for no effect and ±100 for the full control effect; potency is the fitted concentration of half-maximal effect.

| SMILES | Potency | lipid storage change, negative = inhibition | outcome |
| --- | --- | --- | --- |
| O=C(CSc1nnc(SCc2ccc(Cl)cc2)s1)N/N=C/c1ccccc1Cl | inconclusive: 29.1 µM [falling, single point] | – | – |
| O=C(Cc1cccc2ccccc12)NNC(=O)c1cccs1 | inconclusive: 20.6 µM [falling, single point] | – | – |
| Cc1cccc(NC(=O)C2CCN(C(=O)c3ccccc3C)CC2)n1 | – | inconclusive: 29.8% | – |
| CC(=O)c1c(C)[nH]c(C(=O)CSc2nnc(C3CCCCC3)n2N)c1C | inconclusive: 0.116 µM [activator, full curve, poor fit] | – | – |
| O=C(c1scc2c1CCCC2)N1CCCCC1 | – | inconclusive: -6.1% | – |
| O=C(Cn1cc(C(=O)c2cccs2)c2ccccc21)NCC1CCCO1 (configuration not stated) | inconclusive: 0.103 µM [falling, full curve, poor fit] | – | – |
| CCOc1ccccc1NC(=O)NCc1cccnc1 | – | inconclusive: -4.94% | – |
| Cc1ccc(CS(=O)(=O)CCC(=O)N2CCOCC2)cc1 | inconclusive: 7.31 µM [activator, partial curve] | – | – |
| COC1=C(OC)C(=O)C(CCCCCCCCCCO)=C(C)C1=O | – | inconclusive: -5.21% | – |
| Cc1cc(Nc2cccc([N+](=O)[O-])c2)c2cccc(C)c2n1 | – | inconclusive: 11.3% | – |
| C1CCCN(CCCCN2CCCCCC2)CC1 | – | inconclusive: -23.1% | – |
| CCc1cc2cc3c(cc2nc1SCC(=O)Nc1cc(OC)c(OC)cc1C(=O)O)OCO3 | – | inconclusive: 40% | – |
| COc1ccc(S(=O)(=O)N2CCCCC2)cc1N(C)S(=O)(=O)c1ccccc1 | inconclusive: 29.1 µM [falling, single point] | – | – |
| CC(c1nc2ccccc2c(=O)[nH]1)N(C)c1ccc2ccccc2c1 (configuration not stated) | – | inconclusive: 24.2% | – |
| CC(C)(C)c1ccc(/C=N/NC(=S)NC2CCCCC2)cc1 | inconclusive: 32.6 µM [falling, single point] | – | – |
| CCOC(=O)N1CCN(C(=O)c2cc3c(=O)n4cccc(C)c4nc3s2)CC1 | – | inconclusive: 20.6% | – |
| CC(C)n1c(/C=C/[C@@H](O)C[C@@H](O)CC(=O)O)c(-c2ccc(F)cc2)c2ccccc21 | – | inconclusive: -20.8% | – |
| O=C(O)CCCC(=O)N1CCOCCOCCOCCOCC1 | – | inactive: -7% | – |
| Cc1ccc(S(=O)(=O)NCC(=O)OCCOc2cccc(Cl)c2)cc1 | inconclusive: 29.1 µM [falling, single point] | – | – |
| CCCC(=O)c1ccc(N2CCOCC2)c(F)c1 | inconclusive: 0.731 µM [activator, full curve] | – | – |
| CCOc1ccc2nc(NC(=O)C3CCCN(S(=O)(=O)c4cccc5nonc45)C3)sc2c1 (configuration not stated) | inconclusive: 0.13 µM [activator, full curve, poor fit] | – | – |
| O=C(CN1C(=O)S/C(=C\c2ccccn2)C1=O)Nc1ccccc1 | inconclusive: 6.51 µM [activator, single point] | – | – |
| CCOC(=O)C(=O)Nc1cc([N+](=O)[O-])ccc1C | – | inconclusive: 19% | – |
| CCc1cc(C(c2ccc(OC)c(OC)c2)N2CCOCC2)c(NC(=O)c2ccccc2)s1 (configuration not stated) | – | inconclusive: -4.95% | – |

Shown in CSV form: two of the compounds above.
SMILES,Potency,"lipid storage change, negative = inhibition",outcome
O=C(Cc1cccc2ccccc12)NNC(=O)c1cccs1,"inconclusive: 20.6 µM [falling, single point]",–,–
Cc1ccc(CS(=O)(=O)CCC(=O)N2CCOCC2)cc1,"inconclusive: 7.31 µM [activator, partial curve]",–,–

The listing continues:

| SMILES | Potency | lipid storage change, negative = inhibition | outcome |
| --- | --- | --- | --- |
| O=C(CC(C(=O)O)c1ccc(Cl)cc1Cl)c1ccc(Cl)cc1 (configuration not stated) | – | inconclusive: 55.2% | – |
| CCc1cc(=O)oc2c3c(cc(OCC(=O)NCc4ccncc4)c12)OC(C)(C)CC3 | – | – | inactive [at 46.1 µM] |
| Cc1nnc(-c2cnn(C)c2N)n1CCCN1CCOCC1 | inconclusive: 0.731 µM [falling, full curve] | – | – |
| Clc1ccc(-c2ccc(CNCC3CCCO3)o2)cc1 (configuration not stated) | – | inconclusive: 27.6% | – |
| CSc1cccc(NC(=S)NCCCN2CCN(c3ccc(F)cc3)CC2)c1 | inconclusive: 1.16 µM [activator, partial curve, poor fit] | – | – |
| CCCCN(C)CC(O)Cn1cc(/C=C/C(=O)c2cccs2)c2ccccc21 (configuration not stated) | inconclusive: 25.9 µM [falling, single point] | – | – |
| COc1ccc(NCC(=O)n2c(C)c(C)c3ccccc32)cc1OC | – | inconclusive: 9.95% | – |
| CSc1ccc(/C=C(\C#N)C(=O)NC2CCCCC2)cc1 | inconclusive: 3.26 µM [falling, full curve, poor fit] | – | – |
| CCN(Cc1nc(-c2ccccc2)no1)C(=O)COc1cccc(OC)c1 | inconclusive: 0.116 µM [falling, full curve, poor fit] | – | – |
| C/C(=N\NS(=O)(=O)c1ccccc1)c1cc(Cl)cc(Cl)c1O | inconclusive: 2.59 µM [falling, partial curve, poor fit] | – | – |
| O=S(=O)(Nc1ccccc1)c1ccc(NS(=O)(=O)c2cccs2)cc1 | – | inconclusive: -0.987% | – |
| CCOC(=O)CN1C(=O)C(O)=C(C(C)=O)C1c1ccc([N+](=O)[O-])cc1 (configuration not stated) | – | inconclusive: -4.22% | – |
| Cc1cc(NC(=O)CCl)n(-c2nc3ccccc3s2)n1 | – | inconclusive: -13.5% | – |
| Cc1ccc(-c2ccc(=O)n(CCC(=O)N3CCN(c4ccccc4)CC3)n2)cc1 | inconclusive: 0.58 µM [activator, partial curve] | – | – |
| N#Cc1ccc(C(=O)NC2=NCCS2)cc1 | inconclusive: 0.82 µM [rising, single point] | – | – |
| CCOC(=O)c1c(C)[nH]c(C(=O)COC(=O)c2[nH]c(C)c(C(C)=O)c2C)c1C | inconclusive: 23.1 µM [activator, partial curve] | – | – |
| Cc1[nH]c2ccccc2c1SCC(=O)N1CCN(c2ccccc2)CC1 | – | inconclusive: 22% | – |
| COCCCNC(=O)c1nc2ccccc2c(=O)n1NC(=O)Nc1c(Cl)cccc1Cl | inconclusive: 6.51 µM [activator, partial curve, poor fit] | – | – |
| CC1=C(C(=O)OC2CCCC2)C(c2ccc(C)o2)C2=C(CC(c3cccs3)CC2=O)N1 (configuration not stated) | inconclusive: 6.51 µM [activator, partial curve, poor fit] | – | – |
| COC(=O)CC1NCCNC1=O (configuration not stated) | active: 0.0326 µM | – | – |
| CC(=O)N/N=C(\C)CC(=O)Nc1cccc2c1CCCC2 | – | inactive: 18.2% | – |
| COc1ccc(CC(=O)NCC2(c3ccc(OC)c(OC)c3)CCOCC2)cc1 | – | inconclusive: 86.9% | – |
| CC(C)N(Cc1ccccc1)C(=O)CSc1nccn1C | – | inconclusive: -42.1% | – |

Reformatted: results already given
SMILES | Potency | lipid storage change, negative = inhibition | outcome
Cc1ccc(S(=O)(=O)NCC(=O)OCCOc2cccc(Cl)c2)cc1 | inconclusive: 29.1 µM [falling, single point] | – | –
CCCC(=O)c1ccc(N2CCOCC2)c(F)c1 | inconclusive: 0.731 µM [activator, full curve] | – | –
